Experimental findings from PubChem BioAssay AID2685 (National Center for Advancing Translational Sciences (NCATS), 2010) are described below.

The list shows a part of the results. The main result of the screen is listed elsewhere. These columns were measured beside it and carry no call. The list favours compounds with an active or inconclusive main result. The note in brackets gives the kind of curve behind each potency; many fits are weak.

A short description of the experiment: qHTS Assay for Lipid Storage Modulators in Drosophila S3 Cells.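 For cell number change: cells counted by Cell Tracker Red CMTPX staining in the red channel.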 The note with it: BODIPY lipid droplet fluorescence, 18-24 h; for cell number change: measured here: cell count max response, cells fed with added oleic acid. The method, boiled down:
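Drosophila S3 cells got compounds at several concentrations plus oleic acid (400 uM solution). Laser-scanning cytometry with 488 nm excitation read lipid droplets at 500-530 nm and cells at 575-640 nm. Percent activity was relative to 20 uM Triacsin C.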
On the technique in general: Quantitative high-throughput screening tests each substance at several concentrations.

The mark [1] stands for this setting: measured here: lipid fluorescence (Fed channel) AC50, cells fed with added oleic acid.
Setting [2] is: measured here: cell number channel AC50, cells fed with added oleic acid.

The term AC50 denotes the concentration at which the activity in the assay is half-maximal. `CC(=O)c1cccc(NC2=NCC(C)S2)c1` (centres undefined): the cell number change stood at 5.53%. Moreover, the AC50 under setting [1] was 731 nM [rising, full curve, poor fit].

Take `CCN(CC)C(=O)Oc1ccccc1NC(C)=O`: the concentration at half-maximal activity (AC50) under setting [2] was 29100 nM [falling, single point].

As for `CC1CC(C)CN(C(=O)COC(=O)c2cn(C)c3ccccc23)C1` (centres undefined), the cell number change is -7.81%. The AC50 under setting [1] was 820 nM [rising, single point].

Regarding `O=C1NC(=S)NC(=O)C1=Cc1ccc2c(c1)CCN2CCCCl`, the cell number change is -3.18%. In addition, under setting [1], the AC50 is 6510 nM [falling, single point].

On to `Nc1cc(N2CCNCC2)ccc1[N+](=O)[O-]`, for which the cell number change turned out to be 56.1%. Under setting [2], the AC50 was 5800 nM [rising, full curve]. Also, the AC50 under setting [1] is 103 nM [falling, full curve, poor fit].

As for `Cc1cccc(NC(=O)OC2CN3CCC2CC3)c1` (centres undefined), the cell number change was -3.83%. Further, under setting [1], the concentration at half-maximal activity (AC50) was 4.61 nM [falling, full curve, poor fit].

`N#CC1=C(N)Oc2c(c(=O)sc3ccccc23)C1c1cccnc1` (centres undefined): the concentration at half-maximal activity (AC50) is 4.61 nM [rising, full curve, poor fit] under setting [2] and 2060 nM [rising, partial curve, poor fit] under setting [1].

As for `Cc1ccc(C2N3CCCN23)cc1` (centres undefined), the cell number change is -5.97%.

On to `COC(=O)C1=C(c2ccc(F)cc2OCc2ccccc2)C[C@@H]2CC[C@H]1N2C(=O)NC1Cc2ccccc2C1`, for which the cell number change is -7.8%. Further, the AC50 under setting [1] was 32600 nM [falling, single point].

Take `CSc1nnc([C@@H](N)Cc2ccccc2)o1`: the cell number change came out at 13.1%.

Turning to `COc1ccc(NC(=O)N2CCC3(CC2)OCCO3)cc1OC`, the cell number change amounted to 4.69%. For the same compound, the concentration at half-maximal activity (AC50) under setting [1] is 731 nM [rising, single point].

With `COc1ccc(C2CN(C)CC2C(=O)c2ccc(C)cc2)cc1Cl` (centres undefined), the cell number change was determined as 21.5%. Moreover, the half-maximal activity concentration (AC50) under setting [2] is 6510 nM [rising, single point].

Regarding `Cc1ccc(-c2cc(-c3ccc(C)cc3)[n+](-c3ccccc3)c(-c3ccc(C)cc3)c2)cc1`, the cell number change is 2.4%. Besides, under setting [2], the AC50 was 1460 nM [falling, partial curve]. Moreover, under setting [1], the AC50 was 4110 nM [falling, partial curve].

As to `COc1cc(C=C2C(=O)NC(=O)NC2=O)ccc1OCc1ccc([N+](=O)[O-])cc1`, the cell number change is -12%. Moreover, the AC50 under setting [2] was 184 nM [falling, full curve]. Besides, the AC50 under setting [1] is 206 nM [falling, full curve].

Regarding `COC(=O)C1=C(c2ccc(C(C)=O)cc2)C[C@@H]2CC[C@H]1N2C(=O)NC1CC1`, the cell number change is -17%.

`CCOP(=O)(C#CC(C)(C)C)C(O)(c1ccccc1)C(F)(F)F` (centres undefined): the cell number change turned out to be 19.8%. Besides, the AC50 under setting [1] is 23100 nM [falling, single point].

For the compound `COc1cc(/C=C2\C(=O)NC(=O)N(c3ccccc3)C2=O)cc(OC)c1O`, the cell number change was -25.5%. The AC50 under setting [2] was 5.17 nM [falling, full curve, poor fit]. In addition, the AC50 under setting [1] is 231 nM [falling, full curve, poor fit].
